Reference: PubChem BioAssay AID652259 (Drosophila RNAi Screening Center, 2013)
The deposit covers about 22,000 reagents; shown is a random part of those that have a named target and a result. Of all reagents, 233 (1.1%) are marked active. 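Light values are raw, unnormalised plate reads; the ratio scores behind the reporter calls were not deposited.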 A plus sign joins genes that one reagent is predicted to hit. Not given: the amount of reagent, the time to read-out, the dose of the treatment.

- Test: 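Identify new Wingless signalling regulators in fly cells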 (primary screen)
- Cell system: Drosophila clone 8 imaginal disc epithelial cells
- Reagents: long dsRNA against Drosophila genes
- Conditions: pathway stimulated by co-transfected Wingless expression plasmid
- Measurement: 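Dual luciferase reads per well after Wingless plasmid stimulation: reporter firefly light and Renilla control light; activity is firefly divided by Renilla, a ratio not deposited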
- Scale: firefly reporter light: higher = more Wg reporter light, before normalisation; Renilla control light: higher = more transfected or surviving cells
- Call rule: 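a knock-down is a candidate when at least two out of four statistical tests show it departing from its plate mean; one test alone signals a weak candidate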
- Calls: active = candidate regulator (raises or lowers reporter); inactive = not a candidate

gene | amplicon | reporter change call, replicate 1 | firefly reporter light, replicate 1 | firefly reporter light, replicate 2 | Renilla control light, replicate 1 | Renilla control light, replicate 2 | Call
Menl-2 + Menl-1 | DRSC07469 | – | 8416 | – | 3705 | – | inactive
Menl-2 + Menl-1 | DRSC07470 | – | 6362 | – | 2459 | – | inactive
Ctns (Cystinosin) | DRSC15175 | – | 18097 | – | 13795 | – | inactive
Bap55 (Brahma associated protein 55kD) | DRSC07000 | Wg reporter activity raised | 40768 | – | 4133 | – | active
spn-F | DRSC14475 | – | 1741 | 6357 | 800 | 1826 | inactive
CG13982 | DRSC02314 | – | 1984 | 3602 | 912 | 896 | inactive
CG13386 | DRSC02260 | – | 1866 | 4486 | 640 | 2416 | inactive
CG43069 | DRSC05752 | – | 16293 | – | 11664 | – | inactive
Arv1 (ACAT-related protein required for viability 1) | DRSC11491 | – | 3917 | – | 2032 | – | inactive
Lsp1alpha (Larval serum protein 1 alpha) | DRSC20258 | – | 17778 | – | 8922 | – | inactive
dare + CG30033 | DRSC22908 | – | 6.46e5 | 5.99e5 | 1.75e5 | 9088 | inactive
CG13361 | DRSC17896 | – | 16914 | – | 16466 | – | inactive
yellow-b | DRSC03639 | – | 3746 | – | 1865 | – | inactive
Cyt-c1 (Cytochrome c1) | DRSC10447 | – | 5331 | – | 2455 | – | inactive
Best4 (Bestrophin 4) | DRSC10792 | – | 6890 | – | 2614 | – | inactive
CG14100 | DRSC10101 | – | 13712 | – | 4964 | – | inactive
CG10435 | DRSC14246 | – | 7605 | – | 1920 | – | inactive
CG6225 | DRSC15996 | – | 12541 | – | 3525 | – | inactive
GlcAT-S (Glucuronyltransferase S) | DRSC02731 | – | 7237 | – | 2368 | – | inactive
sha (shavenoid) | DRSC06331 | – | 6080 | – | 2516 | – | inactive
UBL3 (Ubiquitin like 3) | DRSC20298 | – | 15256 | – | 6093 | – | inactive
CG5024 | DRSC15698 | – | 21704 | – | 20534 | – | inactive
CG31823 | DRSC01887 | – | 2956 | 7441 | 1129 | 3458 | inactive
hoip (hoi-polloi) | DRSC03546 | – | 1685 | 3650 | 170 | 480 | inactive
CG3906 | DRSC04431 | – | 8237 | – | 1900 | – | inactive
Ptpa (Phosphotyrosyl phosphatase activator) | DRSC00776 | – | 10128 | – | 4044 | – | inactive
CG31368 | DRSC14949 | – | 12632 | – | 3058 | – | inactive
CG31368 | DRSC14951 | – | 6474 | – | 2019 | – | inactive
Dlic (Dynein light intermediate chain) | DRSC19824 | – | 2752 | 4985 | 951 | 2193 | inactive
CG15473 | DRSC18056 | – | 17009 | – | 9124 | – | inactive
ATP6AP2 (ATPase H+ transporting accessory protein 2) | DRSC16420 | – | 18608 | – | 5479 | – | inactive
CG13917 | DRSC08386 | – | 18028 | 7.48e5 | 6087 | 3.41e5 | inactive
Fer1HCH (Ferritin 1 heavy chain homologue) | DRSC16671 | – | 2912 | 7090 | 1052 | 1865 | inactive
Pdf (Pigment-dispersing factor) | DRSC16786 | – | 3187 | – | 759 | – | inactive
CG34304 (retired record) | DRSC12810 | – | 3609 | – | 1572 | – | inactive
Elba2 (Early boundary activity 2) | DRSC00731 | – | 9664 | – | 3401 | – | inactive
CG10428 | DRSC02054 | – | 10093 | – | 2816 | – | inactive
CG11414 | DRSC04110 | – | 7964 | – | 3132 | – | inactive
CG31087 | DRSC14253 | – | 18448 | – | 17547 | – | inactive
CG8405 | DRSC05599 | – | 19904 | – | 7328 | – | inactive
CG8405 | DRSC07166 | – | 8521 | – | 2081 | – | inactive
CG14391 | DRSC14850 | – | 15899 | – | 3739 | – | inactive
aph-1 (anterior pharynx defective 1) | DRSC00547 | – | 10112 | – | 4314 | – | inactive
GNBP1 (Gram-negative bacteria binding protein 1) | DRSC11169 | – | 10337 | – | 4512 | – | inactive
GNBP1 (Gram-negative bacteria binding protein 1) | DRSC21836 | – | 6.90e5 | 6.57e5 | 2.38e5 | 2.68e5 | inactive
Crg-1 (Circadianly Regulated Gene) | DRSC22882 | – | 7.87e5 | 8.17e5 | 2.97e5 | 2.70e5 | inactive
CG1271 | DRSC08290 | – | 4707 | – | 848 | – | inactive
CG32639 | DRSC18972 | – | 3489 | – | 379 | – | inactive
Pdk (Pyruvate dehydrogenase kinase) | DRSC07504 | – | 7216 | – | 2177 | – | inactive
CG10126 | DRSC14191 | – | 8205 | – | 3643 | – | inactive
stx (stuxnet) | DRSC18442 | – | 15824 | – | 2352 | – | inactive
stx (stuxnet) | DRSC18443 | – | 25564 | – | 9719 | – | inactive
CG14615 | DRSC20627 | – | 12003 | – | 7872 | – | inactive
Rip11 (Rab11 interacting protein) | DRSC20000 | Wg reporter activity lowered | 698 | 3224 | 603 | 2328 | active
for (foraging) | DRSC00195 | – | 20914 | – | 9141 | – | inactive
for (foraging) | DRSC00818 | – | 9642 | – | 4746 | – | inactive
PIG-Wa (Phosphatidylinositol glycan anchor biosynthesis class W a) | DRSC00728 | – | 3609 | 4733 | 1104 | 2204 | inactive
Mcm10 (Minichromosome maintenance 10) | DRSC03162 | – | 8860 | – | 2921 | – | inactive
be (ben) | DRSC19607 | – | 3878 | 9433 | 1345 | 4284 | inactive
be (ben) | DRSC19944 | – | 12055 | – | 9012 | – | inactive
be (ben) | DRSC19945 | – | 27090 | – | 10692 | – | inactive
CG32026 | DRSC08950 | – | 2726 | – | 994 | – | inactive
CG9016 | DRSC03127 | – | 2954 | 5081 | 933 | 1105 | inactive
Vps25 (Vacuolar protein sorting 25) | DRSC06486 | – | 4073 | 9959 | 813 | 2321 | inactive
Teh3 (tipE homolog 3) | DRSC08537 | – | 5288 | – | 2642 | – | inactive
CG14439 | DRSC17931 | – | 16464 | – | 9522 | – | inactive
CG7653 | DRSC01886 | – | 2389 | 4950 | 855 | 2803 | inactive
CG14269 | DRSC17912 | – | 12256 | – | 12112 | – | inactive
dj (don juan) | DRSC12625 | – | 13814 | – | 1796 | – | inactive
CG17732 | DRSC10283 | – | 19419 | – | 6087 | – | inactive
alpha-Spec (alpha Spectrin) | DRSC08704 | – | 17190 | – | 4123 | – | inactive
CG7509 | DRSC08596 | – | 3938 | – | 2242 | – | inactive
CG9062 | DRSC07327 | – | 7456 | – | 2827 | – | inactive

No new results follow: an excerpt of the list.
gene | amplicon | reporter change call, replicate 1 | firefly reporter light, replicate 1 | firefly reporter light, replicate 2 | Renilla control light, replicate 1 | Renilla control light, replicate 2 | Call
UBL3 (Ubiquitin like 3) | DRSC20298 | – | 15256 | – | 6093 | – | inactive
CG5024 | DRSC15698 | – | 21704 | – | 20534 | – | inactive
CG31823 | DRSC01887 | – | 2956 | 7441 | 1129 | 3458 | inactive
hoip (hoi-polloi) | DRSC03546 | – | 1685 | 3650 | 170 | 480 | inactive
CG3906 | DRSC04431 | – | 8237 | – | 1900 | – | inactive
Ptpa (Phosphotyrosyl phosphatase activator) | DRSC00776 | – | 10128 | – | 4044 | – | inactive
CG31368 | DRSC14949 | – | 12632 | – | 3058 | – | inactive
CG31368 | DRSC14951 | – | 6474 | – | 2019 | – | inactive
Dlic (Dynein light intermediate chain) | DRSC19824 | – | 2752 | 4985 | 951 | 2193 | inactive
